The record followed here is PMC5522442 (Scientific Reports, 2017).

Some peptides are written in HELM: one residue between dots, names in brackets for other building blocks, links after the first $.

A short description of the data set: peptide made by a vendor.

Substance “PEPTIDE1{Y.E.T.G.C.K.R.C.C.Y.L.D.E.Y.G.C.I.R.C.C}$PEPTIDE1,PEPTIDE1,5:R3-16:R3|PEPTIDE1,PEPTIDE1,8:R3-20:R3|PEPTIDE1,PEPTIDE1,9:R3-19:R3$$$V2.0” had an oxidative folding yield (oxidative folding step, HPLC peak area before vs after folding) of 76.7%. For the same substance, where the note is “whole synthesis”, the “final purity (method not given)” value came to 85%.
